The results in this text go back to the supplement of paper PMC10849652.

Protein sequences, listed by entry. Tags and fused reporters are not part of them. Lines headed by an entry give the natural chain unless they say otherwise; changes in a name come on top.
UniProt Q9UEY8: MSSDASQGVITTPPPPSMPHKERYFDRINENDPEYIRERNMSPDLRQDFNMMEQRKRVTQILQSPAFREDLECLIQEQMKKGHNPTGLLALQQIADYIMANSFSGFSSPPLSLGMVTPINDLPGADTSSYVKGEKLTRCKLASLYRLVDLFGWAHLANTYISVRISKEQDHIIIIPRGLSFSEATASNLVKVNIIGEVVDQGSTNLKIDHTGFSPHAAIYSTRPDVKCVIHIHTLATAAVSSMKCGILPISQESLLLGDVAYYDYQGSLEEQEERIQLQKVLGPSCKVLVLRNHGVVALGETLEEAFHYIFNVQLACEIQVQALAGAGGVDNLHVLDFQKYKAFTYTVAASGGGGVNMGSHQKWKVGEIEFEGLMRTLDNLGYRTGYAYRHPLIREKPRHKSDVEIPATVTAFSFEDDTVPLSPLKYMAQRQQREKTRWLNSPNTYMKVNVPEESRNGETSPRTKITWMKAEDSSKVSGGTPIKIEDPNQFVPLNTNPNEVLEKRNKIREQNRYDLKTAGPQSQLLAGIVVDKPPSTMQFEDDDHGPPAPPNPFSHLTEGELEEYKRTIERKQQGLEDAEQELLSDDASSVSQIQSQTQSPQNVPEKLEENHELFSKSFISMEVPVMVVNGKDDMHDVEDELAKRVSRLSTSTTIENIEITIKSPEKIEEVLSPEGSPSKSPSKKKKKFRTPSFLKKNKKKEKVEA
UniProt Q9C0C7: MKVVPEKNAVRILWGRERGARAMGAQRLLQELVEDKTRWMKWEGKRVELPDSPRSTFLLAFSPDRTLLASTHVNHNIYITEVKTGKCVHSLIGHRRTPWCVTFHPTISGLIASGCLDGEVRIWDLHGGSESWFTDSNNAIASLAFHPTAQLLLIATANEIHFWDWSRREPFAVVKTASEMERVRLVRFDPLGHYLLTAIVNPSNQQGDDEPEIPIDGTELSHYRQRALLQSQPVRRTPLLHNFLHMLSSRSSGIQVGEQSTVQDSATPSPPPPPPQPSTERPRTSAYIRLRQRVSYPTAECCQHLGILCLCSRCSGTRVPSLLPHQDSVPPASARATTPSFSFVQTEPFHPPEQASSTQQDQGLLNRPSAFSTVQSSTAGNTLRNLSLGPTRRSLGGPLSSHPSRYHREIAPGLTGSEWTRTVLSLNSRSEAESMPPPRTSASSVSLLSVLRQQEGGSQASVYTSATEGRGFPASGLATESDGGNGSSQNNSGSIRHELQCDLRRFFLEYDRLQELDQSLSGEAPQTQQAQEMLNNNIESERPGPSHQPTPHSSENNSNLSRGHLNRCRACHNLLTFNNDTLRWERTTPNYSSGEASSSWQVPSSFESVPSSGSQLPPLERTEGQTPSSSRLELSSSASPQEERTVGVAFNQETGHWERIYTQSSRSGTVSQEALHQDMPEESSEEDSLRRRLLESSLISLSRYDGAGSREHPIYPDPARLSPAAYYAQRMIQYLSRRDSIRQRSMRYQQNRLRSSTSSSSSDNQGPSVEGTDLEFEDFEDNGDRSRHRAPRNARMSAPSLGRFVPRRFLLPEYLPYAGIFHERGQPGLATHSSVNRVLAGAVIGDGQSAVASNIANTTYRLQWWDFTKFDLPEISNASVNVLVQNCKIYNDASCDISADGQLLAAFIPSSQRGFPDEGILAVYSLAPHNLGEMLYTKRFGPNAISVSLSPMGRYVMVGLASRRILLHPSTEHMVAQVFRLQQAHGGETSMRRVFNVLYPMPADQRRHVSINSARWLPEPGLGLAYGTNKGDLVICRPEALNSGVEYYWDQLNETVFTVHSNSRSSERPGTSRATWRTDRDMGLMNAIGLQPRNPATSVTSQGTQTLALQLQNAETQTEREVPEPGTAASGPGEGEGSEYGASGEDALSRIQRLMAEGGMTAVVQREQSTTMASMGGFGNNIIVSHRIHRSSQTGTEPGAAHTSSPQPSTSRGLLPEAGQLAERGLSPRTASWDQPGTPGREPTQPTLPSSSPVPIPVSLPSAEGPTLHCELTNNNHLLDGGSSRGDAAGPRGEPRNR
UniProt P05091: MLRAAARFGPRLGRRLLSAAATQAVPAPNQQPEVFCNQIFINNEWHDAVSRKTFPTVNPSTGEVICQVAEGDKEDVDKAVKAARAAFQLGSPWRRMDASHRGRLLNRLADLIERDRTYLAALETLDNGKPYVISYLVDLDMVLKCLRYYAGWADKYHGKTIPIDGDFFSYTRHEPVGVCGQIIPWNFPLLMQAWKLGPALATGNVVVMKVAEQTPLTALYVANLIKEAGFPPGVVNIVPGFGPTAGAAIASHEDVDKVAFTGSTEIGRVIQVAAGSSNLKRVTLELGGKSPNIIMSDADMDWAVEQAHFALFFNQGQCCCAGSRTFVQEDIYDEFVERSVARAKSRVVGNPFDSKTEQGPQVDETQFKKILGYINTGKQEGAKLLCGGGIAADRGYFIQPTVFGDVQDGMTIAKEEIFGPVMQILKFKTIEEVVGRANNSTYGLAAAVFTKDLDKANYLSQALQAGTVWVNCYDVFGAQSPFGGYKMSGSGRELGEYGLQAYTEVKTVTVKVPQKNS
UniProt P51828: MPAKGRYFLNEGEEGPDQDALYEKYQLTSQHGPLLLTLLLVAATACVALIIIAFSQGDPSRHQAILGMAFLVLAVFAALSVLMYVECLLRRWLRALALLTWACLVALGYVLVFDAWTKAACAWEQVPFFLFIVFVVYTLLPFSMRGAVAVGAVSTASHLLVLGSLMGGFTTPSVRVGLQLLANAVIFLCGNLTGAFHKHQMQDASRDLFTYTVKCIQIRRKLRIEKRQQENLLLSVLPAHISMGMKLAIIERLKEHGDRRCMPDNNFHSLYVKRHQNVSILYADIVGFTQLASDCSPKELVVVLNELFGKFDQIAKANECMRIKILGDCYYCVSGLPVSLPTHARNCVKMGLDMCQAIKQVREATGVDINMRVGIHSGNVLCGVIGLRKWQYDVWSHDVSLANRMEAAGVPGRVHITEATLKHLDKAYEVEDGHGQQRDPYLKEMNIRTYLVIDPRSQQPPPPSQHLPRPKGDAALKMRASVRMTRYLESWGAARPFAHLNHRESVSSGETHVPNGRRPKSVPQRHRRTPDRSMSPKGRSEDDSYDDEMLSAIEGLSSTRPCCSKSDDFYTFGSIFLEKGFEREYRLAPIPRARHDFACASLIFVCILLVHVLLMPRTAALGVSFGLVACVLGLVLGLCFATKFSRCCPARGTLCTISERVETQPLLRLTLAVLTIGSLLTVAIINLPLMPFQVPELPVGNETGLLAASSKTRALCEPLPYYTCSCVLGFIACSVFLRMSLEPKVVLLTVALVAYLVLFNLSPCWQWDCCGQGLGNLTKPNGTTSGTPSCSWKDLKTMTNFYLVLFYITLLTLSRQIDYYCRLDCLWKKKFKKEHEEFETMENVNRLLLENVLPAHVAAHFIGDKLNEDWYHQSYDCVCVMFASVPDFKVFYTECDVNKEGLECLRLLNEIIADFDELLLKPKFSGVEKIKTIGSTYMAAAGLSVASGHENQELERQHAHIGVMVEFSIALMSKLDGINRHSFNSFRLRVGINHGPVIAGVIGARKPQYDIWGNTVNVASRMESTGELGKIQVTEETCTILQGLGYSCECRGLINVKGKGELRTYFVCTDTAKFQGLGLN
UniProt Q6NS38: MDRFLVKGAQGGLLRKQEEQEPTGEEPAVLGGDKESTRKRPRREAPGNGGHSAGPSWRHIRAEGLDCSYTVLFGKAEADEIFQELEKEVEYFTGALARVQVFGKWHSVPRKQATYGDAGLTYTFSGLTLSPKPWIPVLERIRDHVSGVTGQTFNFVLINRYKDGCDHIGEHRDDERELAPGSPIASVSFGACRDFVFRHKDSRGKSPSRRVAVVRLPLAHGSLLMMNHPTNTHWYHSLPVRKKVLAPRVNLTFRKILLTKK
UniProt Q9NP73: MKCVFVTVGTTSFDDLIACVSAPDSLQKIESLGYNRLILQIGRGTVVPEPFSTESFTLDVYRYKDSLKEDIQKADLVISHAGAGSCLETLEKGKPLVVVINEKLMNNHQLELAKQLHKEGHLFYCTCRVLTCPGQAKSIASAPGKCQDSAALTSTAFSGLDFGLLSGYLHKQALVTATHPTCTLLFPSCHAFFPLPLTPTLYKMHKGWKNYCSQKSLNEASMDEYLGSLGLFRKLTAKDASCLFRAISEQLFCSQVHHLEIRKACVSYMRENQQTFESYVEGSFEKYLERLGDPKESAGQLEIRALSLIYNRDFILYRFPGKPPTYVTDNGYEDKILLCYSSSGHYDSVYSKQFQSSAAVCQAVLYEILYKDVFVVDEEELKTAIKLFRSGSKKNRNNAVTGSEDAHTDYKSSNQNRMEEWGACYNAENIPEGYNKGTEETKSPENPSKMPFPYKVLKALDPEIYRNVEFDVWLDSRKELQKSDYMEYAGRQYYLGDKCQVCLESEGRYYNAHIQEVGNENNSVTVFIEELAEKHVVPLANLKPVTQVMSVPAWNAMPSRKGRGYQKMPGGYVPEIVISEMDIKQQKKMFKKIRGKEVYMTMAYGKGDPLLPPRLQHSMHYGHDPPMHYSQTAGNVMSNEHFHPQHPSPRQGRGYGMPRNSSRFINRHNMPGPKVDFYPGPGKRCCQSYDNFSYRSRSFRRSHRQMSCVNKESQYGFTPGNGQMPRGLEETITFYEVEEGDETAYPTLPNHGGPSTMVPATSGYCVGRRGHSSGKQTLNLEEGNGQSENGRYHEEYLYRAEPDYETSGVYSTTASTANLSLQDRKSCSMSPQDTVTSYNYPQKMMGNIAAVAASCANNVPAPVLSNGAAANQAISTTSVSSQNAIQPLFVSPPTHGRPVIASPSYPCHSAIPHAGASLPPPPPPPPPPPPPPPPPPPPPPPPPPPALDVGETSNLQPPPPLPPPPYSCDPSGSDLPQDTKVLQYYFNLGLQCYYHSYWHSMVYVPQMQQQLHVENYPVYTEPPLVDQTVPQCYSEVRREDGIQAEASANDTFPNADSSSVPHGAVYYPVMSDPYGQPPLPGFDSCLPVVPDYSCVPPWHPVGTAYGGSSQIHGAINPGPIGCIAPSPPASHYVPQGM
UniProt Q13686: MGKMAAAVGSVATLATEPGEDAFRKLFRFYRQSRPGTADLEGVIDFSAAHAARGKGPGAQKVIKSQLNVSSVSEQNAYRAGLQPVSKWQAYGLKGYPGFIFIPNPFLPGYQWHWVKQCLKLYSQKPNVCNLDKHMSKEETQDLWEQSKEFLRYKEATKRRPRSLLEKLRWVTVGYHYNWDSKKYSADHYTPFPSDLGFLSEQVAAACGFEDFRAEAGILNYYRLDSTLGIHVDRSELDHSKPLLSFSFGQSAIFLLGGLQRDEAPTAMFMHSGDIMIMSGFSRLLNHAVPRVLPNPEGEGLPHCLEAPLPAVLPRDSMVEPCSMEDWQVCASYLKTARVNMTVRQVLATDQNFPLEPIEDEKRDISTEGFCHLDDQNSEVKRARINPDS
UniProt Q9BS18, whole entry, looked up: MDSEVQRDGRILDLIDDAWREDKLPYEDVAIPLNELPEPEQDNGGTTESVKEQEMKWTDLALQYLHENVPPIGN
UniProt Q9NRZ5: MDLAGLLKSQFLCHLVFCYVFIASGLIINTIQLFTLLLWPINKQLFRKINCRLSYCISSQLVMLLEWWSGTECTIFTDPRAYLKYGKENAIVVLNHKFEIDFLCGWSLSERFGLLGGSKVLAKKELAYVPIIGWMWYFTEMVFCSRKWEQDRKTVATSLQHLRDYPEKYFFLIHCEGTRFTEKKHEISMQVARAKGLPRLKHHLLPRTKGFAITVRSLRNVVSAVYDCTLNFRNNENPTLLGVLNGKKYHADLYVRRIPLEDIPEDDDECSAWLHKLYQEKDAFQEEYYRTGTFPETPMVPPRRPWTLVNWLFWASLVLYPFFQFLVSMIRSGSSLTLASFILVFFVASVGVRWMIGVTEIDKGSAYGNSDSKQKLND
UniProt O75342: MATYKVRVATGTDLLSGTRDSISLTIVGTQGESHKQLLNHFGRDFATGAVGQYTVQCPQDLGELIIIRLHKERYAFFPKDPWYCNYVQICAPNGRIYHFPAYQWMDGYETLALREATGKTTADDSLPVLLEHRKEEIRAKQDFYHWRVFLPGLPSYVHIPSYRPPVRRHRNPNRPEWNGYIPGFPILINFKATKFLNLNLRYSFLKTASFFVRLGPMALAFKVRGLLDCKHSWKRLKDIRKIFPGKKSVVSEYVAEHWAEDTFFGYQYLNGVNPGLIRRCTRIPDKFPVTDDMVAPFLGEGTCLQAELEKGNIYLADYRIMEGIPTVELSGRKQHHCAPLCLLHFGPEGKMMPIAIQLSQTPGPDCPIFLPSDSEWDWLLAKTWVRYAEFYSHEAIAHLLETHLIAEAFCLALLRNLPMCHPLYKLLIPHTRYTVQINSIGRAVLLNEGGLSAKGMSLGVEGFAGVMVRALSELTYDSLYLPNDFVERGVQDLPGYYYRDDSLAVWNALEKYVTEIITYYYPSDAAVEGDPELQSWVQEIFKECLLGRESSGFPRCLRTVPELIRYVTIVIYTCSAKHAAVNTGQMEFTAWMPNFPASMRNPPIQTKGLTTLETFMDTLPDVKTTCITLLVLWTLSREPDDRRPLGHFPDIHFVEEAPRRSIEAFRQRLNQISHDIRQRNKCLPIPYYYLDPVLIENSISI

The other results are listed elsewhere or left out.

Compound in one test: C1=CC(=C(C=C1Cl)C2=NC3=NC=CN=C3C(=N2)NC4=CC=NC=C4)F
Briefly: log2 fold change, soluble protein after heating vs DMSO (PISA); higher = thermal stabilisation; K562 cells, 10 uM, 30 min; active = over 0.2 and 3.5 SD of the protein, either way, in both replicates (recomputed). In short, it runs like this: (§1)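 Thermal stability values are relative to control samples and come from duplicates. They are expressed as log2 fold changes. For measurement, K562 cells (2×10^6 cells/mL) received 10 μM compound for 30 min, and aliquots were heated for 3 min over 48°C-58°C, pooled, and extracted at 4°C in PBS with 0.5% NP-40. Soluble protein, the supernatant after 21,000xg for 90 min, was quantified by TMTpro 16plex LC-MS/MS with equalised channel sums.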
Turning to ALDH7A1 (UniProt P49419), the log2 fold change is inactive: 0.019.
On to ALDOB (UniProt P05062), for which the log2 fold change was inactive: 0.407.
In the case of ADD3 isoform 2 (UniProt Q9UEY8), the log2 fold change is inactive: -0.049.
The same measure, in the same setting: the same measure for AKAP9 isoform 6 (UniProt Q99996): inactive: 0.332; for AMBRA1 isoform 5 (UniProt Q9C0C7): inactive: -0.076; for ALDH2 isoform 2 (UniProt P05091): inactive: -0.106.
Still for that read-out and setting: the same measure for ADGRV1 (UniProt Q8WXG9): inactive: -0.018.
For the target AMZ2 (UniProt Q86W34), the log2 fold change was inactive: 0.244.
For AKTIP isoform 2 (UniProt Q9H8T0), the log2 fold change was inactive: -0.07.
Same read-out and setting: the same measure for ALKBH8 isoform 4 (UniProt Q96BT7): inactive: 0.093; for ADCY7 (UniProt P51828): inactive: 0.051.
The same measure, in the same setting: the same measure for ALKBH2 (UniProt Q6NS38): inactive: -0.196.
Same read-out and setting: next, ALG13 isoform 2 (UniProt Q9NP73): inactive: 0.038.
As to ADD1 isoform 4 (UniProt P35611), the log2 fold change is inactive: 0.169.
The same measure, in the same setting: next, ALDOC (UniProt J3QKP5): inactive: -0.175; ALKBH1 (UniProt Q13686): inactive: 0.118.
For ANAPC13 (UniProt Q9BS18), the log2 fold change is inactive: -0.343.
As for ADGB (UniProt Q8N7X0), the log2 fold change was inactive: -0.278.

Compound in another test: C1=CC(=CC=C1C2=NC3=C(N2)C=C(C=C3)C(=O)N)OC4=CC=C(C=C4)Cl
The test is described as above. In short, it runs like this:
as §1
For AMDHD2 (UniProt Q9Y303), the log2 fold change was inactive: 0.071.
On the same count and under the same terms, the same measure for AGAP1 (UniProt Q9UPQ3): inactive: -0.002.
For the target AGTRAP isoform 2 (UniProt Q6RW13), the log2 fold change is inactive: -0.032.
As for AGPAT4 (UniProt Q9NRZ5), the log2 fold change was inactive: -0.072.
The same measure, in the same setting: next, AHSP (UniProt Q9NZD4): inactive: 0.277.

Compound in another test: C1=CC2=C(C=CC(=C2)/C=C\3/C(=O)NC(=NCC4=CC=CS4)S3)N=C1
The description is as above. In short, it runs like this: as §1
On to AIG1 (UniProt Q9NVV5), for which the log2 fold change was inactive: 0.165.
As for ADD3 isoform 2 (UniProt Q9UEY8), the log2 fold change is inactive: 0.057.
For the target AMBRA1 isoform 5 (UniProt Q9C0C7), the log2 fold change was inactive: 0.076.
On to ALDH2 isoform 2 (UniProt P05091), for which the log2 fold change is inactive: 0.6.
Regarding ADGRD1 isoform 4 (UniProt Q6QNK2), the log2 fold change was inactive: 0.166.
Still for that read-out and setting: next, ALOX12B (UniProt O75342): inactive: 0.226.
In the case of ADCY7 (UniProt P51828), the log2 fold change was inactive: -0.123.
Consider ADNP (UniProt Q9H2P0), for which the log2 fold change is inactive: 0.032.
AKR1D1 (UniProt P51857): the log2 fold change is inactive: 0.023.
On the same count and under the same terms, the same measure for ALKBH2 (UniProt Q6NS38): inactive: -0.074; for ALG13 isoform 2 (UniProt Q9NP73): inactive: -0.017; for ALDOC (UniProt J3QKP5): inactive: 0.208.
Regarding ALKBH1 (UniProt Q13686), the log2 fold change was inactive: 0.337.

Compound in the next test: C1=CC2=NC=CN=C2C=C1/C=C/3\C(=O)NC(=O)S3
Described as above. Put shortly:
as §1
With AMOTL1 (UniProt Q8IY63), the log2 fold change is inactive: -0.045.
On to AMBRA1 isoform 5 (UniProt Q9C0C7), for which the log2 fold change was inactive: 0.034.
On the same count and under the same terms, the same measure for ALDH2 isoform 2 (UniProt P05091): inactive: 0.07; for ADGRV1 (UniProt Q8WXG9): inactive: 0.098.
The same measure, in the same setting: next, ALOX12B (UniProt O75342): inactive: 0.143; AKTIP isoform 2 (UniProt Q9H8T0): inactive: -0.125; ALKBH8 isoform 4 (UniProt Q96BT7): inactive: -0.001.
As for AKR1D1 (UniProt P51857), the log2 fold change is inactive: -0.012.
For the target ALKBH2 (UniProt Q6NS38), the log2 fold change was inactive: -0.072.
For ALG13 isoform 2 (UniProt Q9NP73), the log2 fold change was inactive: 0.096.
In the case of AGPAT4 (UniProt Q9NRZ5), the log2 fold change is inactive: 0.042.
Turning to ADD1 isoform 4 (UniProt P35611), the log2 fold change was inactive: -0.019.
As for ALDOC (UniProt J3QKP5), the log2 fold change was inactive: -0.27.
Take ALKBH1 (UniProt Q13686): the log2 fold change is inactive: 0.029.
Same read-out and setting: next, ADD2 isoform 9 (UniProt P35612): inactive: -0.025.

Compound in a further test: C1=CC=C(C=C1)C2=NC(=C(N2)C3=CC=NC=C3)C4=CC(=C(C=C4)Cl)O
Described as above. In short, it runs like this: as §1
Take AGAP1 (UniProt Q9UPQ3): the log2 fold change is inactive: -0.102.
The same measure, in the same setting: the same measure for ALKBH7 (UniProt Q9BT30): inactive: -0.196; for ADD3 isoform 2 (UniProt Q9UEY8): inactive: 0.009; for AKAP9 isoform 6 (UniProt Q99996): inactive: -0.12.
As for ALDH2 isoform 2 (UniProt P05091), the log2 fold change was inactive: -0.263.
Same read-out and setting: next, ALOX12B (UniProt O75342): inactive: -0.749; AMZ2 (UniProt Q86W34): inactive: 0.092; ADCY7 (UniProt P51828): inactive: -0.198.
Still for that read-out and setting: the same measure for ALKBH2 (UniProt Q6NS38): inactive: -0.037; for AGPAT4 (UniProt Q9NRZ5): inactive: 0.057.
On the same count and under the same terms, next, AHSP (UniProt Q9NZD4): inactive: 0.062.
Take AGTPBP1 isoform 3 (UniProt Q9UPW5): the log2 fold change is inactive: 0.06.
On the same count and under the same terms, the same measure for ALDOC (UniProt J3QKP5): inactive: -0.235; for ALKBH1 (UniProt Q13686): inactive: -0.042; for ADD2 isoform 9 (UniProt P35612): inactive: 0.203.
